Experimental data: article doi:10.1101/2025.11.14.688579
These are yes or no findings as the source states them, for the method shown. Some results given as binding are weak or reduced against the parent protein; the word gives no strength.

Sequences of proteins named here, by UniProt entry; tags and fusion partners are left off.
UniProt O35129: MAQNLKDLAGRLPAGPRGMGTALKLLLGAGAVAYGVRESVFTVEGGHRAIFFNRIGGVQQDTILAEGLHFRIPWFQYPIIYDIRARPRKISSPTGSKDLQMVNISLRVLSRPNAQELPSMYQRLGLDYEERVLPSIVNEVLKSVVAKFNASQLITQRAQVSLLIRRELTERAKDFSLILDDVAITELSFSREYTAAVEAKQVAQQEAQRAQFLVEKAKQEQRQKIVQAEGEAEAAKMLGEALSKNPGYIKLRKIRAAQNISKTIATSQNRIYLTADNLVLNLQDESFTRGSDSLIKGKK

Target: prohibitin-2 (mouse (endogenous in MEF)) (UniProt O35129)
Assay: cryo-EM structure

B1: prohibitin-1 (protein, UniProt P67778 1-272)
chain: MAAKVFESIGKFGLALAVAGGVVNSALYNVDAGHRAVIFDRFRGVQDIVVGEGTHFLIPWVQKPIIFDCRSRPRNVPVITGSKDLQNVNITLRILFRPVASQLPRIYTSIGEDYDERVLPSITTEILKSVVARFDAGELITQRELVSRQVSDDLTERAATFGLILDDVSLTHLTFGKEFTEAVEAKQVAQQEAERARFVVEKAEQQKKAAIISAEGDSKAAELIANSLATAGDGLIELRKLEAAEDIAYQLSRSRNITYLPAGQSVLLQLPQ
With B1 the binding was “binds”.
